{"source": "PubChem BioAssay AID1259274, Sanger Institute | 2017", "purpose": "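Kinases RKO cells need to grow, alone or with anchor drugs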 (primary screen)", "cell system": "human RKO colorectal cancer cells", "knock-down reagent": "siRNA pool against human genes", "conditions": "anchor drugs BYL719 at 1 µM, cetuximab at 5 µg/ml or trametinib at 10 nM; DMSO vehicle as the no-drug arm", "detection": "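Viability of cells versus control pool 2 (non-targeting) averaged across replicates; knock-down-only robust z-score; for every anchor drug (BYL719, cetuximab, trametinib) a synergy score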", "direction": "viability z-score, siRNA alone: higher = more viable cells; low values mean essential gene", "call rule": "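Essential when the robust viability z-score with siRNA only falls below -3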", "meaning of the calls": "active = essential when knocked down alone; inactive = no change alone", "note": "In all, the deposit lists 794 reagents; shown is a part drawn at random. 11 of them (1.4%) count as active. 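Calls rest on knock-down without drug only; synergy scores with anchor drugs were not used for the essential call.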 A number with no mark means an inactive call. Further read-outs or replicates are left out here. Not stated in the record: the amount of reagent, the time to read-out."}
{"gene": "CAMKV", "PubChem SID": "SID135620973", "viability z-score, siRNA alone": 0.294}
{"gene": "SNRK", "PubChem SID": "SID152154333", "viability z-score, siRNA alone": 0.702}
{"gene": "ACVRL1", "PubChem SID": "SID152155046", "viability z-score, siRNA alone": -0.57}
{"gene": "JAK3", "PubChem SID": "SID56478525", "viability z-score, siRNA alone": 0.781}
{"gene": "PRPS1L1", "PubChem SID": "SID56479159", "viability z-score, siRNA alone": -0.0546}
{"gene": "MAP3K13", "PubChem SID": "SID56478694", "viability z-score, siRNA alone": 0.597}
{"gene": "N4BP2", "PubChem SID": "SID152151934", "viability z-score, siRNA alone": 0.267}
{"gene": "ELF3", "PubChem SID": "SID135623079", "viability z-score, siRNA alone": -0.884}
{"gene": "PNKP", "PubChem SID": "SID56479144", "viability z-score, siRNA alone": 0.962}
{"gene": "MAP2K7", "PubChem SID": "SID56478752", "viability z-score, siRNA alone": 0.112}
{"gene": "RBM10", "PubChem SID": "SID134313901", "viability z-score, siRNA alone": -1.9}
{"gene": "CDK18", "PubChem SID": "SID56478887", "viability z-score, siRNA alone": -2.7}
{"gene": "MAP3K2", "PubChem SID": "SID135620706", "viability z-score, siRNA alone": 0.134}
{"gene": "CHD9", "PubChem SID": "SID152154196", "viability z-score, siRNA alone": 1.19}
{"gene": "NEK3", "PubChem SID": "SID152154962", "viability z-score, siRNA alone": 0.031}
{"gene": "PDK3", "PubChem SID": "SID152151041", "viability z-score, siRNA alone": -0.0236}
{"gene": "PGK2", "PubChem SID": "SID135621248", "viability z-score, siRNA alone": -0.339}
{"gene": "BRDT", "PubChem SID": "SID152149808", "viability z-score, siRNA alone": 1.19}
{"gene": "PSKH1", "PubChem SID": "SID135620975", "viability z-score, siRNA alone": 1.17}
{"gene": "ACVR1", "PubChem SID": "SID152154539", "viability z-score, siRNA alone": -0.148}
{"gene": "PAK6", "PubChem SID": "SID56478794", "viability z-score, siRNA alone": 1.19}
{"gene": "PRKACA", "PubChem SID": "SID135620859", "viability z-score, siRNA alone": 1.19}
{"gene": "MAGI1", "PubChem SID": "SID152150294", "viability z-score, siRNA alone": -0.411}
{"gene": "TTBK1", "PubChem SID": "SID135620866", "viability z-score, siRNA alone": 1.19}
{"gene": "PEAK1", "PubChem SID": "SID152152075", "viability z-score, siRNA alone": 0.633}
{"gene": "CDADC1", "PubChem SID": "SID56479191", "viability z-score, siRNA alone": 0.153}
{"gene": "CRIM1", "PubChem SID": "SID134313362", "viability z-score, siRNA alone": -0.77}
{"gene": "CALM2", "PubChem SID": "SID134320655", "viability z-score, siRNA alone": 0.417}
{"gene": "PRKCI", "PubChem SID": "SID152150879", "viability z-score, siRNA alone": -1.05}
{"gene": "ALPK2", "PubChem SID": "SID152151764", "viability z-score, siRNA alone": 0.673}
{"gene": "PAK3", "PubChem SID": "SID56478716", "viability z-score, siRNA alone": 0.585}
{"gene": "AAK1", "PubChem SID": "SID152151067", "viability z-score, siRNA alone": -1.15}
{"gene": "LMTK1", "PubChem SID": "SID152151616", "viability z-score, siRNA alone": -0.572}
{"gene": "EEF2K", "PubChem SID": "SID152154873", "viability z-score, siRNA alone": -0.879}
{"gene": "PRPS1", "PubChem SID": "SID56479145", "viability z-score, siRNA alone": 0.577}
{"gene": "RYK", "PubChem SID": "SID152147158", "viability z-score, siRNA alone": -0.214}

4 successive reagents from above:
{"gene": "MAP3K2", "PubChem SID": "SID135620706", "viability z-score, siRNA alone": 0.134}
{"gene": "CHD9", "PubChem SID": "SID152154196", "viability z-score, siRNA alone": 1.19}
{"gene": "NEK3", "PubChem SID": "SID152154962", "viability z-score, siRNA alone": 0.031}
{"gene": "PDK3", "PubChem SID": "SID152151041", "viability z-score, siRNA alone": -0.0236}
